PubChem BioAssay AID504786 – Drosophila RNAi Screening Center | 2011

- Assay: 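Fly genes required for HIF-dependent transcription when hypoxia is mimicked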 (primary screen)
- Cell system: Drosophila S2 cells with a stable HIF luciferase reporter
- Reagents: long dsRNA against Drosophila genes, about 0.2 µg dsRNA per well of a 384-well plate
- Time to read-out: three days of knock-down, then 20 h of DFO before reading
- Treatment: desferrioxamine (DFO) at 100 µM, an iron chelator that mimics hypoxia, for 20 h
- Measurement: 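Firefly luciferase driven by the mouse ldh-a hypoxia-response element, measured after 20 h of 100 µM DFO; z-scores per plate, higher means more signal lost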
- Scale: z-score: higher = stronger loss of HIF reporter signal
The screen tested about 21,000 reagents; shown is a random part of those that have a named target and a result. 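Primary screen; positive scores mean lost reporter signal, so the sign may be inverted from the usual convention.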

target	dsRNA	z-score, replicate 1	z-score, replicate 2	z-score, replicate 3	z-score, replicate 4
CG14356 (GeneID 41722)	DRSC14819	0	-0.2		
faf (GeneID 43749)	DRSC16942	-0.5	0.1		
Tmem131 (GeneID 36761)	DRSC07154	-0.3	-0.5		
Ugt37D1 (GeneID 53511)	DRSC02645	-0.1	-0.5		
Nepl19 (GeneID 43411)	DRSC14875	-0.6	0		
CG5339 (GeneID 37794)	DRSC04496	-0.3	-0.2		
CG15046 (GeneID 32833)	DRSC19622	-0.3	-0.2		
Pax (GeneID 35215)	DRSC01703	-0.4	-0.4		
Pax (GeneID 35215)	DRSC02651	-0.3	-0.1		
Pax (GeneID 35215)	DRSC02652	-0.3	-0.4		
beat-IV (GeneID 42778)	DRSC14195	-0.2	0.5		
beat-IV (GeneID 42778)	DRSC14673	-0.3	1.4		
CG6149 (GeneID 39277)	DRSC10593	-0.2	0.1		
Jon25Bi (GeneID 33708)	DRSC03434	-0.2	-0.1		
CG31544 (retired record) (GeneID 318792)	DRSC12466	-0.4	0.1		
CG42233 (GeneID 43754)	DRSC14328	-0.4	-0.6		
CG42233 (GeneID 43754)	DRSC15416	-0.4	-0.7		
Hmt-1 (GeneID 41925)	DRSC15555	-0.2	-0.6		
Pgant2 (GeneID 33556)	DRSC00587	-0.3	0		
CG10973 (GeneID 39447)	DRSC09813	-0.2	-0.5		
sev (GeneID 32039)	DRSC20372	-0.3	-0.3		
kto (GeneID 44830)	DRSC10983	0.2	0.7		
CG34129 (GeneID 43181)	DRSC15960	0	0.5		
flr (GeneID 39505)	DRSC09787	-0.1	0.4		
ND-24 (GeneID 32740)	DRSC19960	-0.1	0.1		
CG31776 (GeneID 33568)	DRSC00716	-0.4	-0.4		
CG17377 (GeneID 33954)	DRSC00950	-0.5	0.3	0.1	-0.2
CG17377 (GeneID 33954)	DRSC02615	-0.3	-0.4		
Rcd1 (GeneID 36560)	DRSC07116	0.5	0.7		
Vago (GeneID 32040)	DRSC19833	-0.3	-0.5		
nbs (GeneID 44259)	DRSC11373	-0.2	0.1		
Syx17 (GeneID 38541)	DRSC08591	-0.2	-0.6		
mTTF (GeneID 34837)	DRSC01909	0.2	-0.4		
Smyd4-1 (GeneID 35985)	DRSC06785	-0.3	-0.2		
mRpL40 (GeneID 41364)	DRSC15749	0.6	0.6		
Ir67a (GeneID 39110)	DRSC09897	-0.3	-0.5		
CG14839 (GeneID 41736)	DRSC14963	-0.4	-0.3		
Rlb1 (GeneID 41139)	DRSC16826	-0.3	-0.3		
Ir93a (GeneID 42471)	DRSC15212	-0.3	-0.6		
Ir93a (GeneID 42471)	DRSC15213	0.9	-0.3		
CG13840 (GeneID 42705)	DRSC14690	-0.8	-0.8		
Cyt-c-d (GeneID 34995)	DRSC03309	1.1	-0.5		
CG1888 (GeneID 35979)	DRSC06797	-0.3	-0.6		
CG7730 (GeneID 39908)	DRSC10909	-0.4	-0.5		
CG13623 (GeneID 42926)	DRSC14625	-0.6	-0.3		
Sec61beta (GeneID 46080)	DRSC07548	-0.3	-0.1	0.4	0
CG5767 (GeneID 37055)	DRSC06953	-0.2	-0.2		
CG9117 (GeneID 33846)	DRSC03141	-0.2	-0.1		
Or85c (GeneID 41008)	DRSC16766	-0.2	-0.6		
Polr3E (GeneID 40325)	DRSC11880	0.4	0.9		
CG9903 (GeneID 32621)	DRSC20213	-0.1	0.3		
CG2938 (GeneID 31347)	DRSC18243	-0.2	-0.4		
tey (GeneID 40146)	DRSC11042	-0.2	0	0.2	-0.2
AstC (GeneID 34537)	DRSC02403	-0.3	0.1		
CG30271 (GeneID 246518)	DRSC04170	-0.4	0.2		
CG8132 (GeneID 41121)	DRSC16383	-0.4	0		

Quoted from above for reference:
target	dsRNA	z-score, replicate 1	z-score, replicate 2	z-score, replicate 3	z-score, replicate 4
CG31776 (GeneID 33568)	DRSC00716	-0.4	-0.4		
CG17377 (GeneID 33954)	DRSC00950	-0.5	0.3	0.1	-0.2
CG17377 (GeneID 33954)	DRSC02615	-0.3	-0.4		
Rcd1 (GeneID 36560)	DRSC07116	0.5	0.7		
